Data reported in PMC10520872.
No constants are given. Whether binding was seen depends on the method and setting. A result given as binding can be weak or reduced; the word gives no strength. Sequences can lack the tags named with a protein. For some of these results: Binding seen in cells or lysates may run through a third protein.

Key:
[1] = biological target: T1, Mst77F-V5 (male-specific transcript 77F, recombinant full-length with a C-terminal V5 tag) (Drosophila melanogaster) (UniProt P16909); experiment: co-IP; co-immunoprecipitation of recombinant proteins with free Mst77F-V5 in solution (Fig. S1C); details in Supplementary Experimental Procedures; both purified
T1 sequence: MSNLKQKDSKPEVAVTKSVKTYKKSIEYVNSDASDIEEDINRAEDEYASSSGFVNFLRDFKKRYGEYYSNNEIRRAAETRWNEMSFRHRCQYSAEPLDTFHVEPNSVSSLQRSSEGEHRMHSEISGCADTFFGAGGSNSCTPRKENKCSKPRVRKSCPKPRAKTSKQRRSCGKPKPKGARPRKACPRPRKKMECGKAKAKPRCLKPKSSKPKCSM

[2] = biological target: T1, Mst77F-V5 (male-specific transcript 77F, recombinant full-length with a C-terminal V5 tag) (Drosophila melanogaster); experiment: co-sedimentation; glycerol gradient sedimentation of recombinant proteins; substoichiometric (limiting) APL with Mst77F and/or purified core histones (Fig. S3C-E); both purified
[3] = biological target: T1, Mst77F-V5 (male-specific transcript 77F, recombinant full-length with a C-terminal V5 tag) (Drosophila melanogaster); experiment: SEC; size-exclusion chromatography of the APL-Mst77F-V5 complex in the absence of acceptor DNA; fractions analysed by western blot (Fig. S3B); both purified

| Substance | binding [1] | binding [2] | binding [3] |
| --- | --- | --- | --- |
| FLAG-ARTS (recombinant ARTEMIS) (Drosophila melanogaster) | binds | – | – |
| recombinant TAP/p32 (HIV-1 Tat-associated protein/p32) (Drosophila) | binds | – | – |
| FLAG-APL (recombinant APOLLO) (Drosophila melanogaster) | – | binds | binds |
